Publication PMC2661564
No constants are given. Whether binding was seen depends on the method and setting. Sequences can lack the tags named with a protein.

Columns and labels:
[1] = target: SufI (FtsP), C-terminally hexahistidine-tagged (Escherichia coli) (UniProt P26648); assay: crystal structure; sitting drops at 20 °C, 2.5 M NaCl, 100 mM imidazole pH 8.0; orthorhombic and monoclinic forms, each with two molecules in the asymmetric unit; interface analysed with the MSD-PISA server; both purified
[2] = target: SufI (FtsP), C-terminally hexahistidine-tagged (Escherichia coli) (UniProt P26648); assay: SEC; Superdex-75 10-300 column, 20 mM Mops (pH 7.2), 200 mM NaCl; elution at an apparent molecular mass of approximately 55 kDa; both purified

- binding [1]: no binding
- binding [2]: no binding
B1: SufI (FtsP), C-terminally hexahistidine-tagged (protein, UniProt P26648 18-470)
chain: AGAVPLKASAAGQQQPLPVPPLLESRRGQPLFMTVQRAHWSFTPGTRASVWGINGRYLGPTIRVWKGDDVKLIYSNRLTENVSMTVAGLQVPGPLMGGPARMMSPNADWAPVLPIRQNAATLWYHANTPNRTAQQVYNGLAGMWLVEDEVSKSLPIPNHYGVDDFPVIIQDKRLDNFGTPEYNEPGSGGFVGDTLLVNGVQSPYVEVSRGWVRLRLLNASNSRRYQLQMNDGRPLHVISGDQGFLPAPVSVKQLSLAPGERREILVDMSNGDEVSITCGEAASIVDRIRGFFEPSSILVSTLVLTLRPTGLLPLVTDSLPMRLLPTEIMAGSPIRSRDISLGDDPGINGQLWDVNRIDVTAQQGTWERWTVRADEPQAFHIEGVMFQIRNVNGAMPFPEDRGWKDTVWVDGQVELLVYFGQPSWAHFPFYFNSQTLEMADRGSIGQLLVNPVP
